According to US20190248903A1 (Genentech, published 2019):
No constants are given. Whether binding was seen depends on the method and setting. Some results given as binding are weak or reduced against the parent protein; the word gives no strength.

T1: human CLL-1 on cells (HEK293AD cells stably expressing recombinant huCLL-1; endogenous CLL-1 on HL-60 and EOL-1 AML cells) (human) (UniProt Q5QGZ9)
T1 sequence: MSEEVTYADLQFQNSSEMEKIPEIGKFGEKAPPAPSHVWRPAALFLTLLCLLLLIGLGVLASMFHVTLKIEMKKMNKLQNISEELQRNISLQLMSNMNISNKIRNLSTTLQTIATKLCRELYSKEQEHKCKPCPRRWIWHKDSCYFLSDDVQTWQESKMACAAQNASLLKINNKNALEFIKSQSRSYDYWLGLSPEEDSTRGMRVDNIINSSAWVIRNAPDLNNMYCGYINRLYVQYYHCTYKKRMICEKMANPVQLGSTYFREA


Molecular target: T1, human CLL-1 on cells (HEK293AD cells stably expressing recombinant huCLL-1; endogenous CLL-1 on HL-60 and EOL-1 AML cells) (human)
Assay: FACS on stable cell lines expressing recombinant huCLL-1 and on AML tumor cell lines

| Binder | binding |
| --- | --- |
| m6E7 (murine anti-CLL-1 monoclonal antibody) (antibody, V domains shown) VH: QVQLQQSGPELVKPGASVKISCKASGYSFTDYYMHWVKQSHIKSLEWIGRINPYNGAAFYSQNFKDKASLTVDKSSSTAYMELHSLTSEDSAVYYCAIERGADLEGYAMDYWGQGTSVTVSS VL: DIVLTQSPSSLIVSLGQRATISCRASQSVSTSSYNYMHWYQQKPGQPPKLLLKYASNLESGVPARFSGSGSGTDFTLNIHPVEEEDTATYYCQHSWEIPLTFGAGTKLEIK | binds |
| m20B1 (murine anti-CLL-1 monoclonal antibody) (antibody, V domains shown) VH: EVQLQQSGPELVKPGALVKISCKASGYTFTSYDINWLKQRPGQGLEWIGWIYPGDGTTEYNERFKGKATLTADKSSSTAYLQLSSLTSENSAVYFCARSYDYDYAMDYWGQGTSVTVSS VL: DIVLTQSPAIMSASPGEKVTMTCSASSSISYMYWYQQKPGTSPKRWIYDTSKLASGVPARFSGSGSGTSYSLTISSMEAEDAATYYCHQRSSWTFGGGTKLEIK | binds |
| m21C9 (murine anti-CLL-1 monoclonal antibody) (antibody, V domains shown) VH: EVQLQQSGPELVKPGASVKMSCKASGYTFTDYYLDWVKQSHGESFEWIGRVNPYNGGTIYNQKFKGKATLTVDKSSSTAYMDLNSLTSEDSAVYYCARDHYRYDPLLDYWGQGTTLTVSS VL: DIQMTQSHKFMSTSVGDRVSITCKASQDVSTAVAWFQQKPGQSPKLLIYSPSYRYTGVPDRFTGSGSGTDFTFTISSVQAEDLAVYYCQQLYSTPYTFGGGTKLEIK | binds |
| m28H12 (murine anti-CLL-1 monoclonal antibody) (antibody, V domains shown) VH: QVQLQQSGAELVKPGASVKLSCTASGFNIKDTYMHWVKQRPEQGLEWIGRIDPANGDTDYDPKFQGKATVTADTSSNTAYLQLSSLTSEDTAVYYCTISGPPYYVMDYWGQGTSVTVSS VL: DIQMTQSPASLAVSLGQRATISCRASQSVSSSSYSYMHWYQQKPGQPPKLLIKYASNLESGVPARFSGRGSGTDFTLNIHPVEEEDTATYYCQHSWEIPYTFGGGTRLEIK | binds |
